# According to patent US20070003534A1:
# Substitutions are numbered along the chain they refer to. These are yes or no findings as the source states them, for the method shown. Some results given as binding are weak or reduced against the parent protein; the word gives no strength.
# B1: SEQ ID NO 37 (protein)
# chain: RKWKGMLSRLQELRMEEETLLRLKAALHDQLNLLKVEELALQSMINSRGRTETLSSQPAPEQLCDMSLHVDNEVTINLTTP
# B2: SEQ ID NO 45 (protein)
# chain: B1 chain with M6T, E12D, M15K, L33R, M66V, L78Q, T80R
# B3: SEQ ID NO 13 (protein)
# chain: LRKWKGMLSRLRELRKEEETLLRLKAALHDQLNRLKVEELALQSMINSRGRTE
# B4: SEQ ID NO 4 (protein)
# chain: SALRKWKGMLSRLQELRKEEETQLRLKAALHDQLNRLKVEELALQSMINSRGRTETLSSQPAPEQLCDMSLHVDNEVTINQKL
# B5: SEQ ID NO 5 (protein)
# chain: B4 chain with R25H
# B6: SEQ ID NO 12 (protein)
# chain: LRKWKGMLSRLQELRKEEETLLRLKAALHDQLNRLKVEELALQSMINSRGRTETLSSQPAR
# B7: SEQ ID NO 106 (protein)
# chain: GLAKGQLEKEVSALRLSNSNLLEELGELGRERQRLQGELQSLTQRLHREFVPKPEAQVQLQQLRRSVR
# B8: SEQ ID NO 107 (protein)
# chain: B7 chain with V67M
# B9: SEQ ID NO 108 (protein)
# chain: B7 chain with R15G, Q59L, R68M
# B10: SEQ ID NO 3 (protein)
# chain: SALRKWKGMLSRLQELRKEEETQLRLKAALHDQLNRLKVEELALQSMINSRGRTETLSSQPAPEQLCDMSLHVDHEVTINQTTL
# B11: SEQ ID NO 28 (protein)
# chain: LRKWKGMLSRLQELRKEEETLLRLKAALHDQLNRLKVEELALQSMINSRGRTETLSSQPAPES
# B12: SEQ ID NO 29 (protein)
# chain: B11 chain with K25N
# B13: SEQ ID NO 14 (protein)
# chain: LRKWKGMLSRLQGLRKEEETLLRLKAALHDQLNRLKVEELALQSMINSRGK
# B14: SEQ ID NO 26 (protein)
# chain: LRKWKGVLSRLQELRKEEETLLRLKAALHDQLNRLKVEELALQSMINSRGRTETLSSQPAPEQLCDMSLHVDSEVTINQTHK
# B15: SEQ ID NO 46 (peptide)
# chain: KWKGMLSRLKELRKEEETLLRLKAALHDQLNRLKVEELALQSMINSRGR
# B16: SEQ ID NO 123 (protein)
# chain: ALLQVNQTELMQLDMEGMSQYFQRVIPHQFDSCPDKLVLKAYQVKYNPKKMKRLEKEYAAMKSKEMEEQIEIKRLRTENRLLKQRIGTLEKESAALADRLIQGA
# B17: SEQ ID NO 2 (protein)
# chain: VEGSALRKWKGMLSRLQELRKEEETLLRLKAALHDQLNRLKVEELALQSVINSRGRTETLSSQPAPEQLCDMSLHVDHEVTINQTT
# B18: SEQ ID NO 17 (protein)
# chain: LRKWKGMLSRQQEPRKEEETLLRLKAALRDQLNRLKVEELALQSMINSRGRTETLSSQPAPEQLCDMSLHVDNEVTINQTTLKLSTRSPMEEEEV
# B19: SEQ ID NO 105 (protein)
# chain: MKRIFSCSSSQVAVEKWNRRDQKLLEAVQRGDVGRVAALASRKSARPTKLDSNGQSPFHLAASKGLTECLTILLANGADINSKNEDGSTALHLATISCQPQCVKVLLQHGANEDAVDAENRSPLHWAASSGCASSVLLLCDHEAFLDVLDNDGRTPLMIASLGGHAAICSQLLQRGARVNVTDKDDKSALILACEKGSAEVAELLLSHGADAGAVDSLGHNALHYALRTQDKELWRLLQQALNRRRRGGHGLVQHPDHPSQASSCEPRVGSPPKNSRKVEPEEEQEEEGEERCSEEWRWKFEEEQRKVHQLEQELVRKTDECKAHAAAFSSLEEQIREQAQELGHLLVQEPGAPGNQGPGLRPEGDGMEEGCPLNLLAERIQELKKQQKALATINPTLVPKRAEELAPAEIHHEVHRKSQPEQGLPQGPSSETTGKATGQQPNTNGGQNLGLQNTEQVCAGQKERTPAPGTETAGTVGEPVGIAMNQLLLQLREELAAVWREKDAARGALSRPVLEGALGTPRAEAAAAAWEKMEARLERVLVRLDGAKMGLHVKPEVPVQGSRDGAPKAVPGCSKEQEEKKALGTRGEPLGAPGKEQALGGGLAKGQLEKEVSALRLSNSNLLEELGELGRERQRLQGELQSLTQRLHREFVPKPEAQVQLQQLRRSVGMLTEELAMEKEATDKLRRLLASQTSGLQGLWKCLPPDLVGKGNTQSTAAEPLEELQACISTLVDRHLEAQRVLARLEEENQQLRGSLAPCGEPEASLKVTASPQVAALEEDLGMLEEELRAVQATMSGKSQEICKLKQLLYQATEEVAELRAREAASLRQHEKTRGSLVAQAQAWGQELKVVLEKYNTACREMTRLRDTVAEERRRSEDLAARAAEQERQAGEMRGRSEQFEKTAELLKEKTNHLIGACRDKEAKIKELLKKLEQLSEEVLEVRGENAHLALQLQDSQKNHEEIISTYRSHLLNAARGYMEQDVYNILLRILSMQE
# Biological target: bait c-Jun protein from the pCMV-cJun(502-957)CBPzz vector
# Assay: IVV cotranslation selection, bait c-Jun
row,binding,Binder
1,binds,B1
2,binds,B2
3,binds,B3
4,binds,B4
5,binds,B5
6,binds,B6
7,binds,B7
8,binds,B8
9,binds,B9
10,binds,B10
11,binds,B11
12,binds,B12
13,binds,B13
14,binds,B14
15,binds,B15
16,binds,B16
17,binds,B17
18,binds,B18
19,binds,B19

# Biological target: bait c-Jun protein from the pCMV-cJun(502-957)CBPzz vector
# Assay: pull-down on IgG agarose, C-terminal labeled prey, with and without bait c-Jun, SDS-PAGE fluorescence
row,binding,Binder
1,binds,B7
2,binds,B16

# Biological target: bait c-Jun protein from the pCMV-cJun(502-957)CBPzz vector
# Assay: pull-down on IgG agarose, C-terminal labeled prey, bait c-Jun
row,binding,Binder
1,binds,B7
2,binds,B16
3,binds,B17
